Experiment: general procedure: Fmoc solid-phase peptide synthesis; Wang resin; Fmoc-Gly-resin substitution 0.3 to 0.5 mmol/g

## Liraglutide
Purification step
  step yield: 12%
Whole synthesis
  crude yield: 80%
Whole synthesis, 210 nm
  final HPLC purity: >99%
Whole synthesis, HPLC, 210 nm
  crude purity (method not given): about 55 to 60%
  final HPLC purity: 99.7%
Whole synthesis, HPLC, 210 nm, run 1
  final purity (method not given): 95.95%
Whole synthesis, HPLC, 210 nm, run 2
  final purity (method not given): 95.08%
